Data as given in publication PMC4707489, “A novel cell-penetrating peptide suppresses breast tumorigenesis by inhibiting β-catenin/LEF-1 signaling” (Scientific Reports, 2016).
Results are given in words; binding and its absence hold for the method and conditions named. Binding seen in cells or lysates may run through a third protein. Some binding calls cover weakened binding; strength is not graded here.

Chains of the proteins cited; added tags and fusions are not shown.
UniProt P35222: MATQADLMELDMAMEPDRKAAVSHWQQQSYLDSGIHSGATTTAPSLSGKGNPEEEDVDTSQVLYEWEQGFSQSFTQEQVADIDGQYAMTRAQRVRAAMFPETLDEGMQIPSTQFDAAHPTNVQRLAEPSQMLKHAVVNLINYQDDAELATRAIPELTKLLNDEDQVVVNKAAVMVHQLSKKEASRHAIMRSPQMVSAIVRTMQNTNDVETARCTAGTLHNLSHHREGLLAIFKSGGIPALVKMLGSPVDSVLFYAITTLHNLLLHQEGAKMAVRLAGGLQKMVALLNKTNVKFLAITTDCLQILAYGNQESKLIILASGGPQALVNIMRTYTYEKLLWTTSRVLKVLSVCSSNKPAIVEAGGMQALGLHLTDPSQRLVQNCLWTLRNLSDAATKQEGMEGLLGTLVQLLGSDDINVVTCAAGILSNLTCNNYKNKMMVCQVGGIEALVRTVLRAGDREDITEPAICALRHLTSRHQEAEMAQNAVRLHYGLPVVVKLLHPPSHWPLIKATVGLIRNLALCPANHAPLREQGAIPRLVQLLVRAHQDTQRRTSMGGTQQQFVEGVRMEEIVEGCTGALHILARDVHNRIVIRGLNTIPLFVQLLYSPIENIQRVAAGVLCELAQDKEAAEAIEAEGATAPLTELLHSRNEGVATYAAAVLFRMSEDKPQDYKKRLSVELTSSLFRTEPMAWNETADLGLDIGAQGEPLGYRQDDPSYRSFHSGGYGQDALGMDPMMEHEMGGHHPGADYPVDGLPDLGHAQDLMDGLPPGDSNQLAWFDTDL
UniProt Q9UJU2: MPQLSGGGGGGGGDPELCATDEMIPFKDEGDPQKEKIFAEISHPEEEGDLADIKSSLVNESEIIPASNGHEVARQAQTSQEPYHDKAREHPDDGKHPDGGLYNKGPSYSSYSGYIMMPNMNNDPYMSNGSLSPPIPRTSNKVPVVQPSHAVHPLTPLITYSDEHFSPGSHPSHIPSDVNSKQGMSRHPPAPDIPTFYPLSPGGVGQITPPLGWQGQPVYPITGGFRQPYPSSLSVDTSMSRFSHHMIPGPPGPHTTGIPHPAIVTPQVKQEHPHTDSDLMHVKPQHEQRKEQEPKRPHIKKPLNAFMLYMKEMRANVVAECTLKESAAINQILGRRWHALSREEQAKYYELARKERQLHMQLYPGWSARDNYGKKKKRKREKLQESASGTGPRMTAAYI

Biological target: β-catenin (human (endogenous in MCF-7 and MDA-MB-231)) (UniProt P35222)
Experiment: co-IP; MCF-7 cells, with and without the peptide (indicated concentrations, 2 hr); RIPA lysate; immunoprecipitation with anti-β-catenin and protein-G beads, blot with anti-LEF-1

binding: binds
Substance: lymphoid enhancer factor-1 (from UniProt Q9UJU2 1-399)
